PubChem BioAssay AID686943 | Drosophila RNAi Screening Center, 2013
Aim: 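Knockdowns that increase or decrease active ERK after insulin receptor stimulation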 (primary screen). Cells: Drosophila S2R+ haemocyte-like cells expressing YFP-tagged ERK (Rolled). Reagents: long dsRNA against Drosophila genes. Challenge: insulin stimulation versus unstimulated cells; dose and duration not given. Measurement: 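Per-plate z-scores of phospho-ERK immunostaining normalised to YFP-tagged ERK, measured with and without insulin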. Direction: replicate 1, z-score of dpERK with insulin: higher = more active ERK per ERK-YFP after insulin.
The screen tested about 23,000 reagents; below is a random part of those with a known target gene and a result. 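Extra replicates exist only for a retested subset of genes; insulin dose and duration not given; both raised and lowered dpERK matter.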 A plus sign joins genes that one reagent is predicted to hit. Not all columns of the deposit are shown. Reagent sequences are not shown. The record does not give: the amount of reagent, the time to read-out.

Ptx1 [DRSC16804] gave replicate 1, z-score of dpERK with insulin 0.52. With knock-down of Ipp (Inositol polyphosphate 1-phosphatase) [DRSC16718], the record shows replicate 1, z-score of dpERK with insulin -1.85. Knock-down of Mtr3 [DRSC10953] came out at: replicate 1, z-score of dpERK with insulin -1.42. Knock-down of CG14113 [DRSC10116] came out at: replicate 1, z-score of dpERK with insulin -0.14. With knock-down of CG30159 [DRSC04981], the screen gave replicate 1, z-score of dpERK with insulin 0.22. ND-B15 (NADH dehydrogenase (ubiquinone) B15 subunit) [DRSC06199] showed replicate 1, z-score of dpERK with insulin 0.07.

CG31633 [DRSC02275] scored replicate 1, z-score of dpERK with insulin 0.21. Knock-down of CG7094 [DRSC03005] resulted in: replicate 1, z-score of dpERK with insulin 0.42. Against CG32809 [DRSC18507], the values are replicate 1, z-score of dpERK with insulin 0.11. For CG32809 [DRSC18592], the entry reads replicate 1, z-score of dpERK with insulin 0.01. With knock-down of CG14561 [DRSC11722], the screen gave replicate 1, z-score of dpERK with insulin 1.02. Knock-down of CG18765 [DRSC15392] came out at: replicate 1, z-score of dpERK with insulin 0.97.

For Sting [DRSC06615], the entry reads replicate 1, z-score of dpERK with insulin 1.4. Eogt (EGF-domain O-GlcNAc transferase) [DRSC00727] scored replicate 1, z-score of dpERK with insulin -0.26. Depletion of Fgop2 (Fibroblast growth factor receptor 1 oncogene partner 2) [DRSC02016] gave: replicate 1, z-score of dpERK with insulin -0.36. After knock-down of CG18469 [DRSC21838], the screen gave replicate 1, z-score of dpERK with insulin 0.49. CG6420 [DRSC16035] scored replicate 1, z-score of dpERK with insulin 0.67. Sr-CIII (Scavenger receptor class C, type III) [DRSC22262] gave replicate 1, z-score of dpERK with insulin 0.26.

Depletion of ox (oxen) [DRSC07520] came out at: replicate 1, z-score of dpERK with insulin -1.13. Against CG11068 [DRSC19369], the values are replicate 1, z-score of dpERK with insulin -0.35. Depletion of CG30048 [DRSC22205] gave: replicate 1, z-score of dpERK with insulin -0.31. After knock-down of CG10486 [DRSC09735], the record shows replicate 1, z-score of dpERK with insulin -1.02. Depletion of TTLL1B (Tubulin tyrosine ligase-like 1B) [DRSC08594] came out at: replicate 1, z-score of dpERK with insulin 0.31. Against CG34195 [DRSC06909], the entry reads replicate 1, z-score of dpERK with insulin 0.02.

Depletion of NSD (Nuclear receptor binding SET domain protein) [DRSC15691] gave: replicate 1, z-score of dpERK with insulin -0.04. After knock-down of CG2533 [DRSC19855] the results were replicate 1, z-score of dpERK with insulin 0.79. CG9933 [DRSC03276] scored replicate 1, z-score of dpERK with insulin -1.02. Knock-down of CG31639 [DRSC00910] resulted in: replicate 1, z-score of dpERK with insulin 0.68. Knock-down of CG3402 [DRSC08567] resulted in: replicate 1, z-score of dpERK with insulin 0.49. CG34281 [DRSC14807] showed replicate 1, z-score of dpERK with insulin -0.47.

Silencing of l(3)L1231 (lethal (3) L1231) [DRSC16323] gave: replicate 1, z-score of dpERK with insulin 0.67. Alg12 (Alg12 alpha-1,6-mannosyltransferase) [DRSC16416] scored replicate 1, z-score of dpERK with insulin -0.23. After knock-down of ric8b + ric8a [DRSC18104] the results were replicate 1, z-score of dpERK with insulin 0.52. After knock-down of fy (fuzzy) [DRSC03533] the results were replicate 1, z-score of dpERK with insulin -0.48. Against CG9928 [DRSC03274] the deposit lists replicate 1, z-score of dpERK with insulin 0.51. With knock-down of CG34334 [DRSC20643], the record shows replicate 1, z-score of dpERK with insulin -1.6.

Against CG33791 + CG18170 [DRSC08523] the deposit lists replicate 1, z-score of dpERK with insulin 1.01. CG33791 + CG18170 [DRSC08601] showed replicate 1, z-score of dpERK with insulin 0.61. Against NimC2 (Nimrod C2) [DRSC01881] the deposit lists replicate 1, z-score of dpERK with insulin -0.59. Knock-down of CG10353 [DRSC19354] gave: replicate 1, z-score of dpERK with insulin -0.87.

Quoted from above (5 entries):
CG34281 [DRSC14807]: replicate 1, z-score of dpERK with insulin = -0.47
l(3)L1231 (lethal (3) L1231) [DRSC16323]: replicate 1, z-score of dpERK with insulin = 0.67
Alg12 (Alg12 alpha-1,6-mannosyltransferase) [DRSC16416]: replicate 1, z-score of dpERK with insulin = -0.23
ric8b + ric8a [DRSC18104]: replicate 1, z-score of dpERK with insulin = 0.52
fy (fuzzy) [DRSC03533]: replicate 1, z-score of dpERK with insulin = -0.48
